Laboratory results reported in patent publication US20230121197A1, “ANTIBODIES SPECIFICALLY BINDING THE CARBOXYMETHYLATED CATALYTIC SUBUNIT OF PROTEIN PHOSPHATASE 2A” (Medizinische Universität Wien, priority 2020, published 2023).

Test system: α-carboxymethylation of PP2Ac
Assay: H358 xenograft tumors, single dose DT-061 time-course: methyl-PP2Ac by IHC and western blot with 7C10-C5
Design: species or system Balb/c nu/nu mice
Conditions: mouse, in vivo
Experimental: Next, the immunohistochemical analysis of xenograft tumors was performed. In brief, five micron sections from formalin-fixed paraffin-embedded (FFPE) specimens were deparaffinized in Histo-Clear and ethanol, exposed to 0.3% hydrogen peroxide to block endogenous peroxidase activity, and incubated for antigen retrieval with a citrate-based antigen unmasking solution (H-3300, Vector Laboratories) in a pressure cooker. Tumor sections were blocked with Mouse Ig Blocking Reagent (BMK-2202, Vector Laboratories), and incubated with anti-carboxymethyl PP2Ac specific antibody (7C10-C5) or an antibody recognizing total PP2Ac (ab106262) at 4° C. for two nights. Washes were performed in PBS. Slides were subsequently developed using secondary anti-mouse immunoglobulins/HRP (K1497, Agilent), DAB peroxidase substrate as the chromagen, and hematoxylin for counterstaining nuclei. Slides were sealed, and randomized for subsequent blinded review. Two independent researchers scored the level of carboxymethylated PP2Ac staining (with 7C10-C5) in one section per tumor (min. 6 tumors per treatment/control group). […] Scores from 0-2 are considered low staining, 2-4 as moderate, and 4-6 as high intensity staining. Based on these scores the data was plotted as the percentage of slides from each time point that fell into each group (FIG. 14I).

## O=S(=O)(N[C@@H]1CCC[C@H](N2c3ccccc3Oc3ccccc32)[C@H]1O)c1ccc(OC(F)(F)F)cc1 [DT-061]
  correlation between tPP2Ac densitometry and DT-061 serum concentrations: no correlation observed
